80 compounds from paper PMC12040169 (PLOS Biology, 2025) can be followed below.

The structures appear in SMILES notation. This is one part of the list.

For the test, the system named is T1, CTL2-GFP (C. trachomatis L2/434/Bu, GFP-expressing).
T1 construct: L2/434/Bu, GFP-expressing
Also noted: species or system HeLa; Intracellular C. trachomatis growth in HeLa cells, bulk GFP fluorescence relative to DMSO. Particulars: bulk GFP, single well; 28.5 h, 10 µM; inhibitor.
On to `CC(C)(C)c1cc(C(=O)O)c(CN2CCOCC2)o1` [CBK264052], for which the “% of control remaining” value is reported as 123.525%. As to `Nc1nc(-n2cnnc2)nn1-c1ccccc1` [CBK265015], the “% of control remaining” value turned out to be 107.067%. Then `Cc1cc(NC(=O)C(C)C)nc2c1c(=O)oc1ccccc12` [CBK287441], with 146.752%; and `CC(Cc1ccccn1)NC(=O)C1CC2C=CC1C21CC1` (centres unmarked) [CBK282070], with 89.4744%. In the case of `COc1ccc2nc(NC(=N)NC(=S)Nc3ccc(Cl)cc3)nc(C)c2c1` [CBK266677] it was 113.94%; in that of `O=C(NC1(c2ccc(F)cc2)CCCC1)c1cnccn1` [CBK283595], 132.91%; in that of `O=S(=O)([O-])c1cc(S(=O)(=O)O)ccc1Nc1cc2c(nc3ccccc3[n+]2-c2ccccc2)c2ccccc12` [CBK260997N], 69.8565%. Then `O=C1CC(c2ccccc2)CC(=O)N1c1ccc(N2CCOCC2)cc1` [CBK291191], with 117.097%; and `COc1cc(CN2CCC3(CC2)CN(CCO)c2ccccc23)cc(OC)c1OC` [CBK131524], with 105.628%. Consider `CN1C(=O)COc2ccccc2CCCC[C@@H]2[C@H]1CCCN2C(=O)c1cc(=O)[nH]c(=O)[nH]1` [CBK292110], for which the “% of control remaining” value came out at 134.102%. Then `CCN(CC)Cc1c(O)ccc2cc(-c3nc4ccccc4[nH]3)c(=O)oc12` [CBK263824], with 100%; and `Nc1nc(SCc2nnc(S)n2-c2ccccc2)nc2sc3c(c12)CCC3` [CBK301216K], with 106.867%. Regarding `C#CCNC(=O)CC[C@H]1CNC(=O)[C@@H]2[C@@H](CCN2Cc2ccccc2)N1C` [CBK289034], the “% of control remaining” value was determined as 142.229%. In the case of `Clc1cncc(-c2cc3ccccc3[nH]2)n1` [CBK154865] it was 84.3117%. In the case of `O=C(C[n+]1ccc(CCSCc2ccc3c4c(cccc24)CC3)cc1)c1ccc2c3c(cccc13)CC2` [CBK260881B] it was 100%; in that of `O=C(NCC1COc2ccccc2O1)N1CCCC(CO)C1` (centres unmarked) [CBK156030], 149.633%; in that of `Cc1nc2n(n1)C(C(=O)Nc1ccc(C)c(C)c1)CC(=O)N2` (centres unmarked) [CBK288223], 101.202%. For the compound `O=C(NCc1ccc(C(F)(F)F)cc1)[C@@H]1Cc2[nH]cnc2CN1C1CCOCC1` [CBK288981], the “% of control remaining” value was found to be 127.387%. `O=C(CCN1CCc2ccccc2C1)Nc1ccccc1F` [CBK264202]: the “% of control remaining” value is 112.245%. Then `Cc1nc(C)n(CCCNc2cc(C(C)C)nc3ccnn23)n1` [CBK307497], with 123.909%. Consider `CC(=O)Nc1cccc(-c2nccnc2NS(C)(=O)=O)c1` [CBK050740], for which the “% of control remaining” value came out at 100%. Then `CN(CC(=O)Nn1cnnc1)S(=O)(=O)c1ccc(Br)cc1` [CBK268597], with 129.268%; and `O=C(Cn1cccc2cc(C3CCCNC3)nc1-2)N1CCCCCC1` (centres unmarked) [CBK285088], with 118.793%. As for `CCOC(=O)C1CCCN(C(=O)CCn2c(=O)oc3cc(Cl)ccc32)C1` (centres unmarked) [CBK304516], the “% of control remaining” value is 128.937%. In the case of `O=C(CCSCc1nc2sc3c(c2c(=O)[nH]1)CCC3)N1CCC1` [CBK304536] it was 152.264%; in that of `COCCCN1C(=O)c2[nH]nc(-c3cc(C)c(C)cc3O)c2C1c1ccc(SC)cc1` (centres unmarked) [CBK268884], 74.1447%; in that of `COc1cccc(CSc2ccc(CN3CCOCC3)cc2F)c1` [CBK174976], 112.371%. Then `O=C(NC1CCS(=O)(=O)C1)c1cc2ccc(OC(F)(F)F)cc2[nH]1` (centres unmarked) [CBK305754], with 127.396%; and `CC(C)C(=O)N1CCC[C@@H](Cn2nc(-c3cccs3)ccc2=O)C1` [CBK282317], with 124.101%.

Consider `Cc1ccc(C)c(C2C(C(=O)c3ccccc3Cl)=C(O)C(=O)N2c2ccc(CC(=O)O)cc2)c1` (centres unmarked) [CBK297723], for which the “% of control remaining” value was 173.715%. Then `Cc1ccc(NC(=O)C2CC=CCC2C(=O)O)cc1NC(=O)c1ccc(Cl)cc1` (centres unmarked) [CBK268980], with 157.463%; and `Cc1ccc(NC(=S)NCCc2ccc(S(N)(=O)=O)cc2)c(C)c1` [CBK264870], with 124.738%; and `CCOC(=O)C(CNS(=O)(=O)c1ccc(F)cc1C)Cc1ccccc1` (centres unmarked) [CBK305427], with 82.2805%.

Regarding `CCn1c(SCC(=O)O)nnc1-c1ccco1` [CBK068633], the “% of control remaining” value is given as 122.176%.

Regarding `O=C(CSc1ncn[nH]1)Nc1ncccn1` [CBK058488], the “% of control remaining” value amounted to 113.916%. Then `Cc1cc(O)n(-c2cc(-c3ccccc3)nc(-c3ccccc3)n2)n1` [CBK262014], with 146.6%. Turning to `N=C(N)NS(=O)(=O)c1ccc(N/C=C\C(=O)c2ccncc2)cc1` [CBK264185], the “% of control remaining” value is reported as 109.535%. Take `CCc1nc2ccc(C(=O)NCCc3c[nH]c4ccccc34)cn2c1N(C)Cc1ccncc1` [CBK145636]: the “% of control remaining” value is on record as 129.953%. Turning to `Cc1nn(CC(=O)N2CCCCCC2)c(=O)c2cc3ccsc3n12` [CBK284060], the “% of control remaining” value came to 131.624%. Then `Cc1nn(CC(=O)N2CCCC(C)C2)c(=O)c2cc3occc3n12` (centres unmarked) [CBK283623], with 103.203%; and `O=C(CN1CCC(c2ccccc2F)CC1)N1CCCCC1` [CBK283577], with 135.77%. In the case of `Cc1csc2c(C3CCN(C(=O)c4cc[nH]n4)CC3)nc(C)n12` [CBK285245], the “% of control remaining” value was 124.287%. Then `Clc1ccc(Nc2nnns2)cc1Cl` [CBK005211], with 99.0931%.

On to `CCN(CC)C(=O)CN(CCc1ccc(OC)c(OC)c1)C(=O)NCCCSC` [CBK158725], for which the “% of control remaining” value is reported as 131.288%.

Consider `Cc1cc(C(=O)NCC[S+](C)[O-])c(-n2cccc2)s1` (centres unmarked) [CBK283305], for which the “% of control remaining” value is 139.209%. In the case of `O=C(NC(=O)c1ccc2ccccc2c1)Nc1ccc(Br)cc1` [CBK261735] it was 88.4172%; in that of `C(=N\c1ccc2c(c1)OCCOCCOc1cc(/N=C/c3ccccc3)ccc1OCCOCCO2)/c1ccccc1` [CBK261388], 108.266%; in that of `O=C(NCC1CCCO1)c1ccc(NC(=O)C2C3C=CC(C3)C2C(=O)O)cc1` (centres unmarked) [CBK266317], 102.137%. In the case of `CCn1c(C)c(C)n2c3c(=O)n(CCN4CCOCC4)c(=O)n(C)c3nc12` [CBK269786] it was 145.909%; in that of `Cc1nc(C(F)(F)F)ccc1C(=O)NCCn1ccnc1C` [CBK281982], 114.722%; in that of `COc1cc(CN2CCN(Cc3ccccc3)CC2)cc([N+](=O)[O-])c1O` [CBK261574], 116.362%. In the case of `CC1(C)CC(NC2=CC(=O)CC2)CC(C)(C)N1` [CBK028997] it was 110.841%; in that of `CN(C)CCCN(Cc1ccc2ncccc2c1)Cc1ccco1` [CBK283197], 106.078%. For `N#CCc1c(-c2ccc(Br)cc2)nc2ccccn12` [CBK172896], the “% of control remaining” value worked out at 109.179%. Then `CCN1CCN(Cc2nc3c([nH]2)c(=O)n(C)c(=O)n3C)CC1` [CBK269413], with 130.981%; and `CN(CCN1CCCCC1=O)c1nccc(CCC(F)(F)F)n1` [CBK307218], with 122.045%. Then `CC(=O)N1CCc2cc(C)ccc2C12CCN(CCCOc1ccccc1)CC2` [CBK081064], with 159.684%; and `CS(=O)(=O)NC1CCN(c2nc(C(F)(F)F)nc3ccsc23)CC1` [CBK304592], with 117.47%.

`CCN(CC1CCOCC1)C(=O)Cn1c(C)cc(=O)c2ccccc21` [CBK307230]: the “% of control remaining” value was found to be 101.381%.

`COc1cccc(C2(NC(=O)CCn3cccn3)CCCC2)c1` [CBK283660]: the “% of control remaining” value is listed as 102.107%. Then `O=C(c1csnn1)N1CCN(CCc2ccccc2)CC1` [CBK200228], with 134.821%. Take `COc1ccc(Br)c(C(=O)N(C)Cc2cnn(C)c2)c1` [CBK305142]: the “% of control remaining” value is recorded as 159.54%.

For `Cn1c(N2CC[C@H](O)C2)nc2cc(C(=O)NCCn3cccc3)ccc21` [CBK307480], the “% of control remaining” value is 118.769%.

For `CCCN1CCC(=NNC(=O)c2c[nH]c3ccccc23)CC1` [CBK262597], the “% of control remaining” value is 105.415%. Then `O=C(O)C(c1c[nH]c2cc(F)ccc12)N1CCN(CC(=O)N2CCOCC2)CC1` (centres unmarked) [CBK286825], with 143.976%; and `O=C(COc1cccnc1)N1CCN(c2ncccn2)CC1` [CBK144521], with 65.0985%.

On to `O=c1c2[nH]cc(-c3ccccc3)c2ncn1CCc1ccccc1` [CBK288025], for which the “% of control remaining” value is listed as 133.289%. As to `CCNc1cc2ccccc2c(-c2cccc(C(F)(F)F)c2)n1` [CBK085772], the “% of control remaining” value stood at 86.0561%. Then `CCOC(=O)c1cnc2ccc(F)cc2c1N1CCN(C)CC1` [CBK304376], with 129.52%; and `COc1ccc(CCCC(=O)Nc2c(C)nn(C)c2N2CCNCC2)cc1OC` [CBK050252T], with 95.3056%.

Consider `O=C(c1ccno1)N1Cc2ccccc2C1` [CBK200327], for which the “% of control remaining” value came out at 80.0153%. Turning to `CC(CNCC1CCCO1)COc1cccc(Cl)c1` (centres unmarked) [CBK058789], the “% of control remaining” value came to 121.585%. In the case of `O=C(Nc1nccs1)C1CCCN(C(=O)c2ccco2)C1` (centres unmarked) [CBK296725] it was 125.869%; in that of `CCNC(=O)CN(C)S(=O)(=O)c1cc(Cl)ccc1Cl` [CBK091853], 99.0288%; in that of `O=S(=O)(Nc1ccc(-c2nnn[nH]2)cc1)c1c(F)cccc1F` [CBK154734], 120.952%. In the case of `COCCNc1nccnc1-c1ccccc1` [CBK088555] it was 102.983%; in that of `CCCS(=O)(=O)Nc1cccc2[nH]ccc12` [CBK159488], 97.2281%.

Regarding `COc1cccc(-c2cc(C(=O)Nc3nnn[nH]3)c3ccccc3n2)c1` [CBK262640], the “% of control remaining” value is on record as 120.07%. Consider `Cc1cccc(C)c1N(CC(=O)O)S(C)(=O)=O` [CBK262329], for which the “% of control remaining” value worked out at 100%. As for `CNC(=O)C1(Cc2cccc(-c3cccs3)c2)CCN(C(=O)COc2ccccc2)CC1` [CBK285732], the “% of control remaining” value was determined as 98.8195%.
